According to publication PMC8927159:
No constants are given. Whether binding was seen depends on the method and setting. In cells and extracts the contact can be indirect. Binding calls can cover weak binding; strength is not graded here.

The chains behind the UniProt entries cited, without tags or fusion partners. Where a name states a change or a piece, a line headed by the entry shows the natural chain unless it says otherwise.
UniProt Q8WXA9: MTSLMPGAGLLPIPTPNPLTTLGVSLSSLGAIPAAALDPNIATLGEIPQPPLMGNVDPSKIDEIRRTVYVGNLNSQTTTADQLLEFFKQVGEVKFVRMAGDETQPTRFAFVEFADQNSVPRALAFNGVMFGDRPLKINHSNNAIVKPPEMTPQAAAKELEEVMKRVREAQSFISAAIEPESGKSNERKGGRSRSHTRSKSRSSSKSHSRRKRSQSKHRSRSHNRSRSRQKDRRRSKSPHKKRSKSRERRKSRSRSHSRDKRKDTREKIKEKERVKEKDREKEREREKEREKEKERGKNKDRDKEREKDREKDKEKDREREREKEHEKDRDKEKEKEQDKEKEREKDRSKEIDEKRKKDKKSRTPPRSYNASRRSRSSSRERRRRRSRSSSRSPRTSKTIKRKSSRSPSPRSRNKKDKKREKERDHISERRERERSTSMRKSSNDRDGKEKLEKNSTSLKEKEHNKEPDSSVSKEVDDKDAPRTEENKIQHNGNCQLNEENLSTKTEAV
UniProt P61326: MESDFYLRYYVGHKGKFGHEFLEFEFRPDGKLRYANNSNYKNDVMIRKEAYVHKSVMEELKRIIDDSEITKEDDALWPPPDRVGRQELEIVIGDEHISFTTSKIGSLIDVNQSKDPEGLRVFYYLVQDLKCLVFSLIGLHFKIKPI
UniProt Q9HAU5: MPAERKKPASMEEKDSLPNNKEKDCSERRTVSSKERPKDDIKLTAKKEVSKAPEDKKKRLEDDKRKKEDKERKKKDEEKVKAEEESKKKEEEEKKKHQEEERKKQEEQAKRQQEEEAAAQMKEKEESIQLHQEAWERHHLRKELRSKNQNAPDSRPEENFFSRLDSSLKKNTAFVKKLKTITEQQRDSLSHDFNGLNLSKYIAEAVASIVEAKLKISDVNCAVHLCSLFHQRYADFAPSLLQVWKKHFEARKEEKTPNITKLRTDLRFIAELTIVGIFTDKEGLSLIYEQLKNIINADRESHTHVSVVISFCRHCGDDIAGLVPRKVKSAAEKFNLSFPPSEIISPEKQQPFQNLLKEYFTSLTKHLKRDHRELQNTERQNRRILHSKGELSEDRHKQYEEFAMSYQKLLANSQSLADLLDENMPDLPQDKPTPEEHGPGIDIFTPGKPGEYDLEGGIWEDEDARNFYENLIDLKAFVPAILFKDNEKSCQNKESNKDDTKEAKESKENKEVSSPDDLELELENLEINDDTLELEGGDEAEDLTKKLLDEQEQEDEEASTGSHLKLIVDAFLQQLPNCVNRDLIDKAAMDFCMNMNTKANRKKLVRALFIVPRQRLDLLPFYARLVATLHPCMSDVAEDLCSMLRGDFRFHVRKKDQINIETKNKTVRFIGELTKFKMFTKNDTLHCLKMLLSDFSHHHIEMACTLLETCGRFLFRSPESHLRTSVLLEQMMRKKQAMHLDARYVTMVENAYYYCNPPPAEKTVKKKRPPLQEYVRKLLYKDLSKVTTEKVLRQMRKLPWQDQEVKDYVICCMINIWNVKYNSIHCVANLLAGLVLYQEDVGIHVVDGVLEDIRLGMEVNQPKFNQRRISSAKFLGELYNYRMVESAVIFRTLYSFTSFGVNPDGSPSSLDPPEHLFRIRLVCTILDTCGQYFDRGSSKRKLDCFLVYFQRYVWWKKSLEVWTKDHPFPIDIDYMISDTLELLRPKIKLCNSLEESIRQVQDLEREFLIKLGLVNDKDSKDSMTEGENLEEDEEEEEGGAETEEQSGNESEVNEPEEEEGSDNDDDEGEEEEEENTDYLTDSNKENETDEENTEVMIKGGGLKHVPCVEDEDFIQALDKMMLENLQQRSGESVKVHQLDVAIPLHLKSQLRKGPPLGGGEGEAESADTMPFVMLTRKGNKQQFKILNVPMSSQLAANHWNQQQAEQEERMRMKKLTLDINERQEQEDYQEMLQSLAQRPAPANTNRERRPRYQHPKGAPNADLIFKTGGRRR

B1: UPF1 (protein, UniProt Q92900 1-1129)
chain: MSVEAYGPSSQTLTFLDTEEAELLGADTQGSEFEFTDFTLPSQTQTPPGGPGGPGGGGAGGPGGAGAGAAAGQLDAQVGPEGILQNGAVDDSVAKTSQLLAELNFEEDEEDTYYTKDLPIHACSYCGIHDPACVVYCNTSKKWFCNGRGNTSGSHIVNHLVRAKCKEVTLHKDGPLGETVLECYNCGCRNVFLLGFIPAKADSVVVLLCRQPCASQSSLKDINWDSSQWQPLIQDRCFLSWLVKIPSEQEQLRARQITAQQINKLEELWKENPSATLEDLEKPGVDEEPQHVLLRYEDAYQYQNIFGPLVKLEADYDKKLKESQTQDNITVRWDLGLNKKRIAYFTLPKTDSGNEDLVIIWLRDMRLMQGDEICLRYKGDLAPLWKGIGHVIKVPDNYGDEIAIELRSSVGAPVEVTHNFQVDFVWKSTSFDRMQSALKTFAVDETSVSGYIYHKLLGHEVEDVIIKCQLPKRFTAQGLPDLNHSQVYAVKTVLQRPLSLIQGPPGTGKTVTSATIVYHLARQGNGPVLVCAPSNIAVDQLTEKIHQTGLKVVRLCAKSREAIDSPVSFLALHNQIRNMDSMPELQKLQQLKDETGELSSADEKRYRALKRTAERELLMNADVICCTCVGAGDPRLAKMQFRSILIDESTQATEPECMVPVVLGAKQLILVGDHCQLGPVVMCKKAAKAGLSQSLFERLVVLGIRPIRLQVQYRMHPALSAFPSNIFYEGSLQNGVTAADRVKKGFDFQWPQPDKPMFFYVTQGQEEIASSGTSYLNRTEAANVEKITTKLLKAGAKPDQIGIITPYEGQRSYLVQYMQFSGSLHTKLYQEVEIASVDAFQGREKDFIILSCVRANEHQGIGFLNDPRRLNVALTRARYGVIIVGNPKALSKQPLWNHLLNYYKEQKVLVEGPLNNLRESLMQFSKPRKLVNTINPGARFMTTAMYDAREAIIPGSVYDRSSQGRPSSMYFQTHDQIGMISAGPSHVAAMNIPIPFNLVMPPMPPPGYFGQANGPAAGRGTPKGKTGRGGRQKNRFGLPGPSQTNLPNSQASQDVASQPFSQGALTQGYISMSQPSQMSQPGLSQPELSQDSYLGDEFKSQIDVALSQDSTYQGERAYQHGGVTGLSQY
B2: MOV10 (protein, UniProt Q9HCE1 1-1003)
chain: MPSKFSCRQLREAGQCFESFLVVRGLDMETDRERLRTIYNRDFKISFGTPAPGFSSMLYGMKIANLAYVTKTRVRFFRLDRWADVRFPEKRRMKLGSDISKHHKSLLAKIFYDRAEYLHGKHGVDVEVQGPHEARDGQLLIRLDLNRKEVLTLRLRNGGTQSVTLTHLFPLCRTPQFAFYNEDQELPCPLGPGECYELHVHCKTSFVGYFPATVLWELLGPGESGSEGAGTFYIARFLAAVAHSPLAAQLKPMTPFKRTRITGNPVVTNRIEEGERPDRAKGYDLELSMALGTYYPPPRLRQLLPMLLQGTSIFTAPKEIAEIKAQLETALKWRNYEVKLRLLLHLEELQMEHDIRHYDLESVPMTWDPVDQNPRLLTLEVPGVTESRPSVLRGDHLFALLSSETHQEDPITYKGFVHKVELDRVKLSFSMSLLSRFVDGLTFKVNFTFNRQPLRVQHRALELTGRWLLWPMLFPVAPRDVPLLPSDVKLKLYDRSLESNPEQLQAMRHIVTGTTRPAPYIIFGPPGTGKTVTLVEAIKQVVKHLPKAHILACAPSNSGADLLCQRLRVHLPSSIYRLLAPSRDIRMVPEDIKPCCNWDAKKGEYVFPAKKKLQEYRVLITTLITAGRLVSAQFPIDHFTHIFIDEAGHCMEPESLVAIAGLMEVKETGDPGGQLVLAGDPRQLGPVLRSPLTQKHGLGYSLLERLLTYNSLYKKGPDGYDPQFITKLLRNYRSHPTILDIPNQLYYEGELQACADVVDRERFCRWAGLPRQGFPIIFHGVMGKDEREGNSPSFFNPEEAATVTSYLKLLLAPSSKKGKARLSPRSVGVISPYRKQVEKIRYCITKLDRELRGLDDIKDLKVGSVEEFQGQERSVILISTVRSSQSFVQLDLDFNLGFLKNPKRFNVAVTRAKALLIIVGNPLLLGHDPDWKVFLEFCKENGGYTGCPFPAKLDLQQGQNLLQGLSKLSPSTSGPHSHDYLPQEREGEGGLSLQVEPEWRNEL

Target: Splicing Regulatory Glutamine/Lysine-Rich Protein 1, exon 10-inclusive variant (SREK1^L) (human (endogenous in Hep3B)) (UniProt Q8WXA9)
Assay: co-IP; endogenous immunoprecipitation from Hep3B cells with IgG or two commercial anti-SREK1 antibodies (ab1: SREK1^L; ab2: L and S forms) on Protein G Dynabeads; IP buffer 20 mM Tris pH 8, 10% glycerol, 150 mM NaCl, 0.1% NP-40, 0.1 mM EDTA; 2 h at 4 °C; western blot

binding	Molecule
binds	MAGOH (from UniProt P61326 1-146)
binds	GNL2 (from UniProt Q13823 1-731)
binds	UPF2 (from UniProt Q9HAU5 1-1272)
binds	B1
binds	B2
